{"sequences": {"note": "Chains of the proteins cited; added tags and fusions are not shown. Lines headed by an entry give the natural chain unless they say otherwise; changes in a name come on top.", "UniProt Q8N3C7": "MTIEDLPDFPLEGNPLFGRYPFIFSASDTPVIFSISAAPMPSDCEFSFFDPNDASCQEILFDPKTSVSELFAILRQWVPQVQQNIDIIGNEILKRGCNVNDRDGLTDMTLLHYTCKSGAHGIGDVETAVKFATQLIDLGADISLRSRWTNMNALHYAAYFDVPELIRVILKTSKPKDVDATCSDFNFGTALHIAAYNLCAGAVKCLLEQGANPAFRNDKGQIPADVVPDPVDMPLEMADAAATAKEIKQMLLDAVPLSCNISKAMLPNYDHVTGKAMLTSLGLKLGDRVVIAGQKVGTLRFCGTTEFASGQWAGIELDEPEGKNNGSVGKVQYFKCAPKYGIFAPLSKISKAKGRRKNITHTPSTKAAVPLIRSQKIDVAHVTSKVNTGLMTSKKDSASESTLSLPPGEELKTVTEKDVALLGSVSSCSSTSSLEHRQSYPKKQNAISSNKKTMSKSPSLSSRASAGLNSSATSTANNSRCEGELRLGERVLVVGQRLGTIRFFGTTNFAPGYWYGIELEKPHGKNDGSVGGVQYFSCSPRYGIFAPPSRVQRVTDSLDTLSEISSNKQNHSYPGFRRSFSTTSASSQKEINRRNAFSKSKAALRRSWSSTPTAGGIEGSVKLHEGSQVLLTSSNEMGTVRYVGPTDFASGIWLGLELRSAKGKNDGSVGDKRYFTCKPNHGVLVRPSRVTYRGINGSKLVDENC", "UniProt Q9UFW8": "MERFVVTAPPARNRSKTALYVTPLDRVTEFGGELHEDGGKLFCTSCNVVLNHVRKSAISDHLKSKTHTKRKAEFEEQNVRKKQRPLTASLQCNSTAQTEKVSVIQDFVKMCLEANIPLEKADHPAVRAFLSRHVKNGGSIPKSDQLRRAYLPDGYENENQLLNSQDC", "UniProt P50990": "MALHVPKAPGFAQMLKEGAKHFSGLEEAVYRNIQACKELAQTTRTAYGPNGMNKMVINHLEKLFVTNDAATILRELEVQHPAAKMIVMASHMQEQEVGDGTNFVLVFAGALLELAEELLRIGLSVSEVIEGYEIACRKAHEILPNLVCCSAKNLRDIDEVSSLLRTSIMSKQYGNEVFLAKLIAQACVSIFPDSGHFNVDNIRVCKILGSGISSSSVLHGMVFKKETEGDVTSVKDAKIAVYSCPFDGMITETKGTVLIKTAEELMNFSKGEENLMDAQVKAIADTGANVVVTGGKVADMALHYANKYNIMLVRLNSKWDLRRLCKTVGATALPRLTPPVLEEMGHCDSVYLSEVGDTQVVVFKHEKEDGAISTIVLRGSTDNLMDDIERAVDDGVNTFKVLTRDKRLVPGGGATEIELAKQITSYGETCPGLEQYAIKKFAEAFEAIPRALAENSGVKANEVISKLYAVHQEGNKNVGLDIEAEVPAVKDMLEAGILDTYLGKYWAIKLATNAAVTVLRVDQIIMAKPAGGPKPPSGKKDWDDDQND", "UniProt Q9Y5K6, whole entry": "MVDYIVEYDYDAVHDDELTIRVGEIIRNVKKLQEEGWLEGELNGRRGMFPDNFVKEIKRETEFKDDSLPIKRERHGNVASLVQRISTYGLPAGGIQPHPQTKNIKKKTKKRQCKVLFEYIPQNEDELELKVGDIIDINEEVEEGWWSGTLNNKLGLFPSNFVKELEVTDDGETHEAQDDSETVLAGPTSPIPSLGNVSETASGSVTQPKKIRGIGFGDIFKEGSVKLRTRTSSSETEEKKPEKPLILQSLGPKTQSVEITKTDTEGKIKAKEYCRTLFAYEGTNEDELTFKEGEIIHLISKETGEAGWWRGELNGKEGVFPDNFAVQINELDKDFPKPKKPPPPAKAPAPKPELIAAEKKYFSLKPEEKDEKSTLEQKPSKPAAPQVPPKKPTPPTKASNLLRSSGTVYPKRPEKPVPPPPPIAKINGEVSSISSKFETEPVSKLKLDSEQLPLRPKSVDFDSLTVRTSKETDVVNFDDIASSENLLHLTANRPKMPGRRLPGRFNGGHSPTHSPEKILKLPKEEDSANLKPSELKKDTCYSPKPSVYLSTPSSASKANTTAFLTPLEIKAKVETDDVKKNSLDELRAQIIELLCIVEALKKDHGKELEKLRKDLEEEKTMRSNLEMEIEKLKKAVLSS", "UniProt Q92989": "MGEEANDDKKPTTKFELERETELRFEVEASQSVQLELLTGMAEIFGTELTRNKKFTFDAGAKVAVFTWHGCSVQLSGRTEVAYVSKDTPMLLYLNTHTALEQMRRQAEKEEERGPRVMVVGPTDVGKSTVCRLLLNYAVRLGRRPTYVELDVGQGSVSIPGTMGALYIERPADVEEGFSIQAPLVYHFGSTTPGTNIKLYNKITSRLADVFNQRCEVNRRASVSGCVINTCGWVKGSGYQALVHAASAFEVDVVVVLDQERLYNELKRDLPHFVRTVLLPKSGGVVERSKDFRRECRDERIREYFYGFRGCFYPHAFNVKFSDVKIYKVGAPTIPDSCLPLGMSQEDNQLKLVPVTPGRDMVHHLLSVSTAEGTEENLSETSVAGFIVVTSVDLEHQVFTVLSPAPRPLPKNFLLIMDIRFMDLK", "UniProt P35606": "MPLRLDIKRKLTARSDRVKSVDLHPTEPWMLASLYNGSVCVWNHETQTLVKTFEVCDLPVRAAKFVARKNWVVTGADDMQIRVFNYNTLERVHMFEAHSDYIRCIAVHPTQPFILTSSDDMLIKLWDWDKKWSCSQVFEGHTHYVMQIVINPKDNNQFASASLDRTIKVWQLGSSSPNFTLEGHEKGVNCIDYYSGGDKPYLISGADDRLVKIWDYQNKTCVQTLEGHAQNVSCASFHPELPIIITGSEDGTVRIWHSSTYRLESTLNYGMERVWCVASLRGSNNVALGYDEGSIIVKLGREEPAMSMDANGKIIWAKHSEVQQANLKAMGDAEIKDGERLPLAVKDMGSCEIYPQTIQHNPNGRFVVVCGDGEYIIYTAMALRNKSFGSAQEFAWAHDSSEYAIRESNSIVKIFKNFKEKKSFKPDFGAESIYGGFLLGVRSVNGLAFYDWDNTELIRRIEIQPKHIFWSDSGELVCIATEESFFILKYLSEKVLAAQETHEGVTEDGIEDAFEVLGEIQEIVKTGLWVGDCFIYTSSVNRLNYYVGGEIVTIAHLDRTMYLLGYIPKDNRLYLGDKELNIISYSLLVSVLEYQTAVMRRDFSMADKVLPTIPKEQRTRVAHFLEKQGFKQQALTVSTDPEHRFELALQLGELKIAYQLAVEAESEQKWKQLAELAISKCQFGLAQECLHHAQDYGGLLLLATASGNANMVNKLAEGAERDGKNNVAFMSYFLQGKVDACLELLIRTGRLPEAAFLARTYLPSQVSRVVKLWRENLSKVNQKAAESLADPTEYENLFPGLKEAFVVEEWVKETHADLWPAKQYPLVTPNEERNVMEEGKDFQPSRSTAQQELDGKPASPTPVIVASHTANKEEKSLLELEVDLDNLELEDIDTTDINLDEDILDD", "UniProt Q99439": "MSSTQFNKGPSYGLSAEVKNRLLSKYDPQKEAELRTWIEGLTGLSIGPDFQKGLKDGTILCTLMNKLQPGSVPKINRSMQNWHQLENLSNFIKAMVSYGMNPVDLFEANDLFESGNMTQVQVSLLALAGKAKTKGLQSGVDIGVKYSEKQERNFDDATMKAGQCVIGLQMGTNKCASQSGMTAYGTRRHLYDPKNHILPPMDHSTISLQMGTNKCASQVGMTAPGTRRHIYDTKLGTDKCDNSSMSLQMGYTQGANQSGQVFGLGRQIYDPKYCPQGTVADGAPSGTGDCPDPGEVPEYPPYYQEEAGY", "UniProt Q7Z7A1": "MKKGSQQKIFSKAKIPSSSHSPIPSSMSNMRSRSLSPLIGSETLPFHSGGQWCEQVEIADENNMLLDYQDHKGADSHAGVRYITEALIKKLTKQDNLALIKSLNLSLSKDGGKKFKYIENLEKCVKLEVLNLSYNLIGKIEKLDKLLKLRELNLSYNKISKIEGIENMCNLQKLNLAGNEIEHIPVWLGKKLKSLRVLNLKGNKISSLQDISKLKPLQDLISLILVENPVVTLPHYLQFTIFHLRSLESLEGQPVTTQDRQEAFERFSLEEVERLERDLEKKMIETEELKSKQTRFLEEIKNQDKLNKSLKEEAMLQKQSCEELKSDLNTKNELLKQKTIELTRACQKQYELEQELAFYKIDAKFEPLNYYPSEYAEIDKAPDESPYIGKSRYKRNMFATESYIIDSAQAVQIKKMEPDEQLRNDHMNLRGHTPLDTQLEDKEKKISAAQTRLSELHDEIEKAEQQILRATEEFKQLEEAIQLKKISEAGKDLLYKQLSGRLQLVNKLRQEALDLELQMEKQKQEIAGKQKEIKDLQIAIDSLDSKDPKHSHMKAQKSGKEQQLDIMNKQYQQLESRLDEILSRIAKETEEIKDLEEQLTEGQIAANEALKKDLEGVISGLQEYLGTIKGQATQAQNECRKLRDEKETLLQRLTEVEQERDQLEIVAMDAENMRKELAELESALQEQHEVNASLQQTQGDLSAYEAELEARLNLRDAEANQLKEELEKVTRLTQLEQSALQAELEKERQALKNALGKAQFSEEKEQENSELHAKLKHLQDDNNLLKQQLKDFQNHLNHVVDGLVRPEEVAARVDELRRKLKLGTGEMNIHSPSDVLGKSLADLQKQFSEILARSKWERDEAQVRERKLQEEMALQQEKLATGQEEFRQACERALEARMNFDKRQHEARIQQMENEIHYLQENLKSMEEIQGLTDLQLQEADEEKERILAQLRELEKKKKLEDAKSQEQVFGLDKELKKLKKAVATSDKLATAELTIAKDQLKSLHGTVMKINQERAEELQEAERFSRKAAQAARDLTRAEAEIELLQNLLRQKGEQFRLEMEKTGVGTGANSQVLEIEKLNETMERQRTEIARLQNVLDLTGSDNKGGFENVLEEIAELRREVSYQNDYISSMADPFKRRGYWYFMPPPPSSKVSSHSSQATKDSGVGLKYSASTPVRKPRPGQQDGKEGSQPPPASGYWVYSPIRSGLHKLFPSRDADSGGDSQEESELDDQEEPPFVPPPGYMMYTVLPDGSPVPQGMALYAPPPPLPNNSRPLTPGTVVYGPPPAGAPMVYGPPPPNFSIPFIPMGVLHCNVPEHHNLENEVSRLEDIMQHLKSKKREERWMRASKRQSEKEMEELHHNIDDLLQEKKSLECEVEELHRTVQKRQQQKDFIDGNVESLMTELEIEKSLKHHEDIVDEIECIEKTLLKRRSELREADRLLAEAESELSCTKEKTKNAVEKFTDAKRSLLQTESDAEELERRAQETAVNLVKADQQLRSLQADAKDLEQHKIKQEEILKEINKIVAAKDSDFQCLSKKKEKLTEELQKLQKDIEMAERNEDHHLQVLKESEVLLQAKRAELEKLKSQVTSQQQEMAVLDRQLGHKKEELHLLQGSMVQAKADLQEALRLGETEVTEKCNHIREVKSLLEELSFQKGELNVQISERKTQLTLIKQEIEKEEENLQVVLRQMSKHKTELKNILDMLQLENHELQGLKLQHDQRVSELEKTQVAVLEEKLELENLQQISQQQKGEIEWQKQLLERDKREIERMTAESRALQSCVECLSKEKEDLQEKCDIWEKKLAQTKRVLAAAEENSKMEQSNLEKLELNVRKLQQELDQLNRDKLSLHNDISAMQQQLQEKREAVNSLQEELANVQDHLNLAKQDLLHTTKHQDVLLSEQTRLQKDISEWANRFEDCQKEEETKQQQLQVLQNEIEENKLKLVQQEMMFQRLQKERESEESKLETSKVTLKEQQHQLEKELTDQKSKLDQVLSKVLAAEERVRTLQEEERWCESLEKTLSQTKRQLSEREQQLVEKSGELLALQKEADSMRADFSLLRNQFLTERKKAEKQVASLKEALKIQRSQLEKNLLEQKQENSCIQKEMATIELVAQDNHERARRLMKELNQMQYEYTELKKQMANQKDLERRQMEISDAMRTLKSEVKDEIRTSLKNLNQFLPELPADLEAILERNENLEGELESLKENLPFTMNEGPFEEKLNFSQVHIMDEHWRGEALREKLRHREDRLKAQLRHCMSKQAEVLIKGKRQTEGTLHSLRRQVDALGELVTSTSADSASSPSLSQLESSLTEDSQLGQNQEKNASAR", "UniProt Q96BR5": "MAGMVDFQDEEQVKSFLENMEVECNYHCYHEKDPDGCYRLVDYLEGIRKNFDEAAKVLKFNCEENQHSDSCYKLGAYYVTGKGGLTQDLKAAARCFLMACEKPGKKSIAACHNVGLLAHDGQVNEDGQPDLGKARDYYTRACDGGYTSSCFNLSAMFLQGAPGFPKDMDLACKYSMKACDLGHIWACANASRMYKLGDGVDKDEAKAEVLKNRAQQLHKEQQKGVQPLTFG", "UniProt Q92905, whole entry, looked up": "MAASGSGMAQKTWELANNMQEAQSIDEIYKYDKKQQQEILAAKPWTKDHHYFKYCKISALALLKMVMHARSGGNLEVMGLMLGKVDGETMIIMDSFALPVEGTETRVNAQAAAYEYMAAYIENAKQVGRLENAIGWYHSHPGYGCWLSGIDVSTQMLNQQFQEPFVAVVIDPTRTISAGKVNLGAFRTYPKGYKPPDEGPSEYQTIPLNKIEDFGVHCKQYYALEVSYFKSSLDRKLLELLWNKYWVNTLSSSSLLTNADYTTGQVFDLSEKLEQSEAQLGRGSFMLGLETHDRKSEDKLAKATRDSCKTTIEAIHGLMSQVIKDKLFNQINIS"}, "source": "the supplement of paper PMC7666118", "note": "This is one part of the list.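 How the source made its calls: active = dose-dependent thermal stabilisation significant by F-test of dose-response against flat model at 10% FDR; inactive = not significant.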"}
{"compound": "Nc1nc2c(ncn2[C@@H]2O[C@H](COP(=O)(O)OP(=O)(O)OP(=O)(O)O)[C@@H](O)[C@H]2O)c(=O)[nH]1", "experiment": "dose-dependent thermal stabilisation call (2D-TPP, DLPTP, 10% FDR) (binary (1 = stabilised)); higher = stabilised by the compound", "details": "system: Jurkat gel-filtered lysate; concentration range 1-500 µM"}
{"target": "CLIP4 (UniProt Q8N3C7)", "dose-dependent thermal stabilisation call": "inactive: 0"}
{"target": "CNOT10 (UniProt Q9H9A5)", "dose-dependent thermal stabilisation call": "active: 1"}
{"target": "CGGBP1 (UniProt Q9UFW8)", "dose-dependent thermal stabilisation call": "inactive: 0"}
{"target": "CPTP (UniProt Q5TA50)", "dose-dependent thermal stabilisation call": "active: 1"}
{"target": "CCT8 (UniProt P50990)", "dose-dependent thermal stabilisation call": "inactive: 0"}
{"target": "COX17 (UniProt Q14061)", "dose-dependent thermal stabilisation call": "inactive: 0"}
{"target": "CHMP7 (UniProt Q8WUX9)", "dose-dependent thermal stabilisation call": "active: 1"}
{"target": "CCDC9 (UniProt Q9Y3X0)", "dose-dependent thermal stabilisation call": "inactive: 0"}
{"target": "CDC20 (UniProt Q12834)", "dose-dependent thermal stabilisation call": "inactive: 0"}
{"target": "CD2AP (UniProt Q9Y5K6)", "dose-dependent thermal stabilisation call": "inactive: 0"}
{"target": "CHMP1A (UniProt Q9HD42)", "dose-dependent thermal stabilisation call": "inactive: 0"}
{"target": "CAT (UniProt P04040)", "dose-dependent thermal stabilisation call": "inactive: 0"}
{"target": "CDT1 (UniProt Q9H211)", "dose-dependent thermal stabilisation call": "inactive: 0"}
{"target": "CPNE1 (UniProt Q99829)", "dose-dependent thermal stabilisation call": "inactive: 0"}
{"target": "COMMD7 (UniProt Q86VX2)", "dose-dependent thermal stabilisation call": "inactive: 0"}
{"target": "CBWD1 (UniProt Q9BRT8)", "dose-dependent thermal stabilisation call": "active: 1"}
{"target": "CLP1 (UniProt Q92989)", "dose-dependent thermal stabilisation call": "inactive: 0"}
{"target": "CHURC1 (UniProt Q8WUH1)", "dose-dependent thermal stabilisation call": "inactive: 0"}
{"target": "CCNB1 (UniProt P14635)", "dose-dependent thermal stabilisation call": "inactive: 0"}
{"target": "CBR3 (UniProt O75828)", "dose-dependent thermal stabilisation call": "inactive: 0"}
{"target": "CCDC88C (UniProt Q9P219)", "dose-dependent thermal stabilisation call": "inactive: 0"}
{"target": "CLTB (UniProt P09497)", "dose-dependent thermal stabilisation call": "inactive: 0"}
{"target": "COPB2 (UniProt P35606)", "dose-dependent thermal stabilisation call": "inactive: 0"}
{"target": "CNN2 (UniProt Q99439)", "dose-dependent thermal stabilisation call": "inactive: 0"}
{"target": "CLUH (UniProt O75153)", "dose-dependent thermal stabilisation call": "inactive: 0"}
{"target": "CNTRL (UniProt Q7Z7A1)", "dose-dependent thermal stabilisation call": "inactive: 0"}
{"target": "COA7 (UniProt Q96BR5)", "dose-dependent thermal stabilisation call": "inactive: 0"}
{"target": "CLIC1 (UniProt O00299)", "dose-dependent thermal stabilisation call": "inactive: 0"}
{"target": "CKAP2 (UniProt Q8WWK9)", "dose-dependent thermal stabilisation call": "inactive: 0"}
{"target": "CCDC102A (UniProt Q96A19)", "dose-dependent thermal stabilisation call": "inactive: 0"}
{"target": "CLIP1 (UniProt P30622)", "dose-dependent thermal stabilisation call": "inactive: 0"}
{"target": "CAST (UniProt P20810)", "dose-dependent thermal stabilisation call": "inactive: 0"}
{"target": "COPS5 (UniProt Q92905)", "dose-dependent thermal stabilisation call": "inactive: 0"}
{"target": "CDAN1 (UniProt Q8IWY9)", "dose-dependent thermal stabilisation call": "inactive: 0"}
{"target": "CELF1 (UniProt Q92879)", "dose-dependent thermal stabilisation call": "active: 1"}
{"target": "CHMP1B (UniProt Q7LBR1)", "dose-dependent thermal stabilisation call": "inactive: 0"}
